Measured values published in PMC6939906, “Leucine zipper transcription factor-like 1 binds adaptor protein complex-1 and 2 and participates in trafficking of transferrin receptor 1” (PLoS ONE, 2020).
These are yes or no findings as the source states them, for the method shown. Binding seen in cells or lysates may run through a third protein. These calls come from enrichment with a bait or labelling near it, and not all partners need be listed. Sequences can lack the tags named with a protein.

Molecular target: T1, LZTFL1-Myc-Flag (human leucine zipper transcription factor-like 1) expressed in Jurkat E6.1 cells (human) (UniProt Q9NQ48)
T1 sequence: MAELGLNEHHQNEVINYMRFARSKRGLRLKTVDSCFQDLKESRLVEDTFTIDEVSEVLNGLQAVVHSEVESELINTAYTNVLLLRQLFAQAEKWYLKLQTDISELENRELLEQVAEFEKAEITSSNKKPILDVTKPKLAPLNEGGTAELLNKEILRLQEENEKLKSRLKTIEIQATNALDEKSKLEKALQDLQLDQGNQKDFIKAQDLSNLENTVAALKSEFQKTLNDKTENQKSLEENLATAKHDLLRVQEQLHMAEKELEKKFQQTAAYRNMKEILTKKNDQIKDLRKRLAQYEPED
Test: affinity purification with mass spectrometry; LZTFL1-Myc-Flag from transfected Jurkat E6.1 cells precipitated on anti-FLAG M2 magnetic beads overnight at 4°C, eluted with 3X FLAG peptide, SDS-PAGE, silver stain, in-gel digestion, LC-MS/MS

B1: β1 subunit of AP-1, endogenous in Jurkat E6.1 cells (protein, UniProt Q10567 1-949)
chain: MTDSKYFTTTKKGEIFELKAELNSDKKEKKKEAVKKVIASMTVGKDVSALFPDVVNCMQTDNLELKKLVYLYLMNYAKSQPDMAIMAVNTFVKDCEDPNPLIRALAVRTMGCIRVDKITEYLCEPLRKCLKDEDPYVRKTAAVCVAKLHDINAQLVEDQGFLDTLKDLISDSNPMVVANAVAALSEIAESHPSSNLLDLNPQSINKLLTALNECTEWGQIFILDCLANYMPKDDREAQSICERVTPRLSHANSAVVLSAVKVLMKFMEMLSKDLDYYGTLLKKLAPPLVTLLSAEPELQYVALRNINLIVQKRPEILKHEMKVFFVKYNDPIYVKLEKLDIMIRLASQANIAQVLAELKEYATEVDVDFVRKAVRAIGRCAIKVEQSAERCVSTLLDLIQTKVNYVVQEAIVVIKDIFRKYPNKYESVIATLCENLDSLDEPEARAAMIWIVGEYAERIDNADELLESFLEGFHDESTQVQLQLLTAIVKLFLKKPTETQELVQQVLSLATQDSDNPDLRDRGYIYWRLLSTDPVAAKEVVLAEKPLISEETDLIEPTLLDELICYIGTLASVYHKPPSAFVEGGRGVVHKSLPPRTASSESAESPETAPTGAPPGEQPDVIPAQGDLLGDLLNLDLGPPVSGPPLATSSVQMGAVDLLGGGLDSLMGDEPEGIGGTNFVAPPTAAVPANLGAPIGSGLSDLFDLTSGVGTLSGSYVAPKAVWLPAMKAKGLEISGTFTRQVGSISMDLQLTNKALQVMTDFAIQFNRNSFGLAPAAPLQVHAPLSPNQTVEISLPLSTVGSVMKMEPLNNLQVAVKNNIDVFYFSTLYPLHILFVEDGKMDRQMFLATWKDIPNENEAQFQIRDCPLNAEAASSKLQSSNIFTVAKRNVEGQDMLYQSLKLTNGIWVLAELRIQPGNPSCTDLELSLKCRAPEVSQHVYQAYETILKN
binding: binds
